Measured values from article PMC7383231, “Pseudo-RNA-Binding Domains Mediate RNA Structure Specificity in Upstream of N-Ras”.
No constants are given. Whether binding was seen depends on the method and setting. Binding seen in cells or lysates may run through a third protein. A yes stands for co-enrichment or nearness to the bait. Other partners may have been found. Sequences can lack the tags named with a protein.

Chains of the proteins cited; added tags and fusions are not shown. Lines headed by an entry give the natural chain unless they say otherwise; changes in a name come on top.
UniProt Q32KD4: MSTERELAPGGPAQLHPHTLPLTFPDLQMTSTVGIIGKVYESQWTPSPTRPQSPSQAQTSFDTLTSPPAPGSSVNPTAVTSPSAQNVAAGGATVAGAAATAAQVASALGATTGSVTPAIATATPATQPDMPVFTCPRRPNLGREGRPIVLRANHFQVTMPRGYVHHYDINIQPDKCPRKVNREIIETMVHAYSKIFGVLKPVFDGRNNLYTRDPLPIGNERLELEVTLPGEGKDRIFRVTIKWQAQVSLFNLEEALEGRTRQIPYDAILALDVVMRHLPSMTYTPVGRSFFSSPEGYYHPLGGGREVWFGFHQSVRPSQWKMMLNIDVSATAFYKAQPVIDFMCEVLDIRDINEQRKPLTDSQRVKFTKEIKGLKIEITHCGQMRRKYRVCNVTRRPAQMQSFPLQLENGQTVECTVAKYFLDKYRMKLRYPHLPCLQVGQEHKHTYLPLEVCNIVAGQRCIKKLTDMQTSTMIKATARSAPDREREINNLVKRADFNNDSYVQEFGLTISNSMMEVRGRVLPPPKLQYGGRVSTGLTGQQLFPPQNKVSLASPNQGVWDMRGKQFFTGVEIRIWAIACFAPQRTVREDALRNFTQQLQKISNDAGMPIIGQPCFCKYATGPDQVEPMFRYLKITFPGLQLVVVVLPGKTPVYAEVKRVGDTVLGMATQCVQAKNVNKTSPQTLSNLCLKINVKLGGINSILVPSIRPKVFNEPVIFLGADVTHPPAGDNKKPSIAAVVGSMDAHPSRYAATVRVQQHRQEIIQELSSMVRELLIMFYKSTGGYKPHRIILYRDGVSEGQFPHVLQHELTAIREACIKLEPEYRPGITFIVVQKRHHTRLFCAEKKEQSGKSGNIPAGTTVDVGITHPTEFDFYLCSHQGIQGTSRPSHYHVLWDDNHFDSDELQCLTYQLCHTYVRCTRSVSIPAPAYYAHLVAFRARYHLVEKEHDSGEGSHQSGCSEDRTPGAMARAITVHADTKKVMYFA
UniProt Q9V3E7: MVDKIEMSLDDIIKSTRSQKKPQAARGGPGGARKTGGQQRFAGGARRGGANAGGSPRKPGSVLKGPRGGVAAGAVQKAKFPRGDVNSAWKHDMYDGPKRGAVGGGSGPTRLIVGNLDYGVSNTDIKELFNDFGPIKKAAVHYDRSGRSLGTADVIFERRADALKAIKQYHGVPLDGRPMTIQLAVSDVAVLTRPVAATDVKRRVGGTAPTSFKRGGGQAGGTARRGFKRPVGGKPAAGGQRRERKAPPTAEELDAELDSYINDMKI
UniProt P19109: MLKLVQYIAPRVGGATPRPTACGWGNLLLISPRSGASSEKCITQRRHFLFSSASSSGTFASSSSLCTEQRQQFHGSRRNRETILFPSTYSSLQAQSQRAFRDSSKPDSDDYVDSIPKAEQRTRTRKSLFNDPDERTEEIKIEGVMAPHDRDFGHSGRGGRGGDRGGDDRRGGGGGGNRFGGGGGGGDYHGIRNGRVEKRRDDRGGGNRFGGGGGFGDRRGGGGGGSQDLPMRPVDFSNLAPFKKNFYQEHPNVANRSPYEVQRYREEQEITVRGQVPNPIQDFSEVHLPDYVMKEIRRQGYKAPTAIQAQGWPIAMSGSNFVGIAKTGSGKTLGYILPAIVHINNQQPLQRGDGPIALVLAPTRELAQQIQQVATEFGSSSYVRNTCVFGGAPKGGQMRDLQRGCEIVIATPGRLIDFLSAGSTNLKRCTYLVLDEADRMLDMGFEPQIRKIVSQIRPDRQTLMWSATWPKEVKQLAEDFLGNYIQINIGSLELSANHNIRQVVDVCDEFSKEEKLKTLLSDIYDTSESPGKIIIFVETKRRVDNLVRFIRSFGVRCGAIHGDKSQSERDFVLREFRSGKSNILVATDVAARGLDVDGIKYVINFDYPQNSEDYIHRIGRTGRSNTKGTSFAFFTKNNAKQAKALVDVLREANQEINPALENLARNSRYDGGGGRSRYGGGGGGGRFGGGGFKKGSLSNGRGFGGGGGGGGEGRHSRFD

B1: Nito (protein, UniProt Q7KMJ6 1-793)
chain: MSSHRDGAGADRITIKIHNMKRSASRSPGPASRSSLSRNSRSMGRGYDNGSGVPGDSPERLSPERMRRRLDRSPSRYGSPHREPYMRGPPPAERPAGYKVLCVSALPPKAPDDFIEETLYREYKKFGDFSVRLAHDLDERVAYVCFRTPEDAREAKHHKPRLIIYDKMAIVEPVYKSTTRPEYRPRGHSMSPPDYERYHYSRSPMGQGVPLDHRRPPIDPYDRYGPPHMHPHAVHPRDYRPLHHDYPHPPRGPPLHRGGHPHHLHGHAPPHQYAPMRPLAPRPHAPYEKPESKKDKFPNYLHHVQPEDDPLSTRTLFAGNLEVTIADDELRRIFGKYGVVDDIDIKRPPPGTGNAFAFVRYQNLDMAHRAKIELSGQYIGKFQCKIGYGKVTPATRMWIGGLGAWTSVTQLEREFDRFGAIKKIEYQKGEPYAYIQYETVEAATAAVKEMRGFPLGGPERRLRTDFAELPGATPAAPFKSSKPPYDESALEYRRPEYDPYYEESAAYAPRGGYSPYPPRGGYRGRGGYRGRGRGMYHYHNDVHRPPHPGSLAGSSSSVPPPGGVEDEWRRPPGESYDRGARSSSREPGVERSRSRSPLKRARSPGSDSDTSTRRNDALASASTVPDVARKCSTVWTGALILKSSLFPAKFHLTDGDTDIVESLMRDEEGKHNLRITQRLRLDPPKLDDVQKRIASSSSHAIFMGLAGSTNDTNCDDASVQTRPLRNLVSYLKQKEAAGVISLLNKETEATGVLYAFPPCDFSTELLKRTCHSLTEEGLKEDHLVIVVVRGGTA
B2: Edc3 (protein, UniProt Q9VVI2 1-680)
chain: MGPTDQDWIGCAVSIACDEVLGVFQGLIKQISAEEITIVRAFRNGVPLRKQNAEVVLKCTDIRSIDLIEPAKQDLDGHTAPPPVVNKPTPVKLPHFSNILGKQQQLQLQQQQQQLQLQQQQKQQFQEQEREQDLPSTPRSRANDNGRVAAGGASSSSGPRGNFNSALSDKMHQLKLIETNGSNGTLRTPQTSRASSAQQQPQISTTPNSVAAFFGNMIPPKVEVKLGSYVSNTRESYCSSSGDSGEATGLSLGSSKPIDIVSNGDGFYKQTAASSYGNTNGNVRRNGNANNNGNGTGNGSYTNGNGNGNGKNKRNRVRRESSMRQQQVQLTFGSEADDPLIHEDFDFEGNLALFDKQAIWDDIESTTQKPDVVRHIVNNHHHKPEQKYRHDENILASKPLQLRQIESMFGGSQDFVTDDGLIIPTIPAYVRNKIEISADKAGLSLQRQIDILARGASDLAITLLGGARRLTPANNHQWPKIAIICDGGKNMRTINIGAATGRQLASHGLTVLLYVEQAKLLEQNSSSPEISLFKATDNVIVHSVDALPTPDLVILSTNTANLSDAIRKWLSVNRASVLAIDPPPCGINEVAIKYSILPILPLNGISTATTSSSSSAAATPTPIASTSAAASATKSAASTNNCGKLYLCNLGIPDKFYRDCGIKYKSPYGHKYVIPIHSKD
B3: Upf1 (protein, UniProt Q9VYS3 1-1180)
chain: MSVDTYAPSSALSFLDMDDNELLPGADTQPTQYDYRDFTMPSTSQSQTQNDQLEIAQRCSAGDSHPRLASITNDLADLQFEEEDDEPGSSYVKELPPHACKYCGIHDPATVVMCNNCRKWFCNGRGSTSGSHIINHLVRAKHREVTLHGEGPLGETILECYSCGVRNVFVLGFIPAKADSVVVLLCRQPCAAQNSLKDMNWDQEQWKPLIADRCFLAWLVKQPSEQGQLRARQISAAQINKLEELWKENIEATFQDLEKPGIDSEPAHVLLRYEDGYQYEKTFGPLVRLEAEYDQKLKESATQENIEVRWDVGLNKKTIAYFTLAKTDSDMKLMHGDELRLHYVGELYNPWSEIGHVIKVPDNFGDDVGLELKSSTNAPVKCTSNFTVDFIWKCTSFDRMTRALCKFAIDRNSVSNFIYSRLLGHGRADSNDEVLFRGPQPKLFSAPHLPDLNRSQVYAVKHALQRPLSLIQGPPGTGKTVTSATIVYQLVKLHGGTVLVCAPSNTAVDQLTEKIHRTNLKVVRVCAKSREAIDSPVSFLALHNQIRNMETNSELKKLQQLKDETGELSSADEKRYRNLKRAAENQLLEAADVICCTCVGAGDGRLSRVKFTSILIDESMQSTEPECMVPVVLGAKQLILVGDHCQLGPVVMCKKAARAGLSQSLFERLVVLGIRPFRLEVQYRMHPELSQFPSNFFYEGSLQNGVCAEDRRLKLDFPWPQPERPMFFLVTQGQEEIAGSGTSFLNRTEAANVEKITTRFLKAGIKPEQIGIITPYEGQRAYLVQYMQYQGSLHSRLYQEIEIASVDAFQGREKDIIIMSCVRSNERQGIGFLNDPRRLNVALTRAKFGIIIVGNPKVLAKQQLWNHLLNFYKDRKVLVEGSLNNLKESLIHFQKPKKLVNSMNIGAHFMSTIIADAKEVMVPGSIYDRSGGYGQGRQMVGQSMNGGQYGGSGGGPYGNSPLGYGTPSSNSMVGFGLGNGGNGAAGGNNNFGGAGPSWAAAHLHHDSIGYISNEHGAAALGNMPVPVGMFMNMSNIPPRFYNQHQQAIMAVKQNRAIQQQTGNFSPGNSGPGVTGVGVGRSATPGGNKKTNKLGKSRVTGGGTGGAPLTQGSSVCNAAPYSQHPMPLSLQMTQPSGFALSQQPELSQDFGQISQMDGLLSQDVAFNASGERSLNQFSQPY
B4: Hrb27c (Hrp48) (protein, UniProt P48809 1-421)
chain: MEEDERGKLFVGGLSWETTQENLSRYFCRFGDIIDCVVMKNNESGRSRGFGFVTFADPTNVNHVLQNGPHTLDGRTIDPKPCNPRTLQKPKKGGGYKVFLGGLPSNVTETDLRTFFNRYGKVTEVVIMYDQEKKKSRGFGFLSFEEESSVEHVTNERYINLNGKQVEIKKAEPRDGSGGQNSNNSTVGGAYGKLGNECSHWGPHHAPINMMQGQNGQMGGPPLNMPIGAPNMMPGYQGWGTSPQQQQYGYGNSGPGSYQGWGAPPGPQGPPPQWSNYAGPQQTQGYGGYDMYNSTSTGAPSGPSGGGSWNSWNMPPNSAGPTGAPGAGAGTATDMYSRAQAWATGGPSTTGPVGGMPRTGPGNSASKSGSEYDYGGYGSGYDYDYSNYVKQEGASNYGAGPRSAYGNDSSTQPPYATSQAV

Target: T1, Drosophila Upstream of N-Ras (Unr), full-length wild type, V5-tagged (Drosophila) (UniProt B7Z0E2)
T1 sequence: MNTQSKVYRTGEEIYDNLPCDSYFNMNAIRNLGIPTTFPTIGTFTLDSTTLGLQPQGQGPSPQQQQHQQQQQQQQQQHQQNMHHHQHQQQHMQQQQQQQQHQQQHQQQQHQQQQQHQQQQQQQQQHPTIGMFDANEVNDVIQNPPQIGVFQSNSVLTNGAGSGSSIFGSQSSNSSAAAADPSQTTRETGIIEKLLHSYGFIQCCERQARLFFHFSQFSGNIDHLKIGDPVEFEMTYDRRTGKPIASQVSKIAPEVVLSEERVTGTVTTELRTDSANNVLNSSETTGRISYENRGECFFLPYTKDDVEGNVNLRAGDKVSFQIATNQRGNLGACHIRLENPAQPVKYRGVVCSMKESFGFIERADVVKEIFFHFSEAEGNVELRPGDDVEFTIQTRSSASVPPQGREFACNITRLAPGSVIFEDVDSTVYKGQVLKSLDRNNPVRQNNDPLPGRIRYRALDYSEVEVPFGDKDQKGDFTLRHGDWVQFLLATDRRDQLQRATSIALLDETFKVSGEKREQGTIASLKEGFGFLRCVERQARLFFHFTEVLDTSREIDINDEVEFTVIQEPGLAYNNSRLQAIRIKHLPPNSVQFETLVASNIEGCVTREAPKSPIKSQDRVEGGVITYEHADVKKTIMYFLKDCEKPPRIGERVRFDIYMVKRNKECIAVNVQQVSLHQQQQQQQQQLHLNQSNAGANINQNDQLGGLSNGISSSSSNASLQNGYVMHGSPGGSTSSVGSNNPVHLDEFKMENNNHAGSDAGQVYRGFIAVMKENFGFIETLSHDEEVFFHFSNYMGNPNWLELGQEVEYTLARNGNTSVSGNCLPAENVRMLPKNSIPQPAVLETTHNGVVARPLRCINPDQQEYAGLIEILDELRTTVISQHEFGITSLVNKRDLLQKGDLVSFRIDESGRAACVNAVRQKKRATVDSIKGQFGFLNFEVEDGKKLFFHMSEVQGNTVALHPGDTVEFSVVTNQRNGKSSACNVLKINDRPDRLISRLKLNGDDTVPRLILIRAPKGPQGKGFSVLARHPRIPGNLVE
Assay: affinity purification with mass spectrometry; anti-V5 immunoprecipitation (protein A/G magnetic beads) of V5-tagged Unr from lysates of transfected SL2 cells after depletion of endogenous Unr; cells UV cross-linked; no RNase treatment; TMT quantitative MS; n = 3; empty vector as control

binding, binds:
Ago1 (from UniProt Q32KD4 1-984), Imp, Ref1 (from UniProt Q9V3E7), Rm62 (from UniProt P19109 1-719), Rump, B1, B2, B3, B4
